According to PMC6700799:
These are yes or no findings as the source states them, for the method shown. In cells and extracts the contact can be indirect. A yes stands for co-enrichment or nearness to the bait. Other partners may have been found. Sequences can lack the tags named with a protein.

Protein sequences, listed by entry. Tags and fused reporters are not part of them.
UniProt P09429: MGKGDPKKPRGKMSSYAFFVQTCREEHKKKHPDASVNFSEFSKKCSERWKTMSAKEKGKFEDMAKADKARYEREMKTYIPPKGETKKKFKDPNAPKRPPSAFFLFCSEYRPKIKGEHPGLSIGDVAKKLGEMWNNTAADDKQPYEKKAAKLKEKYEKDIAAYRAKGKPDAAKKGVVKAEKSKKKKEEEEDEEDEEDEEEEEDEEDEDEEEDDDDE

Target: T1, pHBLV-CMV-MCS-3flag-EF1-Zsgreen-puro tagged SEPT9 (UniProt Q9UHD8)
T1 sequence: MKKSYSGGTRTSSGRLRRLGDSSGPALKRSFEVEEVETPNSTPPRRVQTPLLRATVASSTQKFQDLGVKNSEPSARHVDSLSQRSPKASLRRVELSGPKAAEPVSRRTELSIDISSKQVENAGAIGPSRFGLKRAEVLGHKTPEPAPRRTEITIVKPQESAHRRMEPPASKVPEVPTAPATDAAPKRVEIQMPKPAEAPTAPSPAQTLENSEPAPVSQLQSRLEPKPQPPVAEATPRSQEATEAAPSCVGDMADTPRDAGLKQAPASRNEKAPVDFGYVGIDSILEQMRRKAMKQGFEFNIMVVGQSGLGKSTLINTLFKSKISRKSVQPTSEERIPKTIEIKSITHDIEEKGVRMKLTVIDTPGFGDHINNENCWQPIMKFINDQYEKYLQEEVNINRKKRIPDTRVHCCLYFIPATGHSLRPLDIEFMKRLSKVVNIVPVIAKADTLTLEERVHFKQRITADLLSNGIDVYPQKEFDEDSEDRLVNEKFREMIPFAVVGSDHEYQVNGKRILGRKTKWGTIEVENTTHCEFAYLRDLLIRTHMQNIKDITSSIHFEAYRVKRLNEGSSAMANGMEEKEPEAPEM
Experiment: affinity purification with mass spectrometry; co-immunoprecipitation followed by LC-MS/MS; SEPT9-LV-CaSki compared with NC-LV-CaSki (legend of Figure S1); antibody used not stated

binding: binds
Substance: HMGB1 protein (from UniProt P09429 1-215)
